{"sequences": {"note": "Protein sequences, listed by entry. Tags and fused reporters are not part of them.", "UniProt Q04206": "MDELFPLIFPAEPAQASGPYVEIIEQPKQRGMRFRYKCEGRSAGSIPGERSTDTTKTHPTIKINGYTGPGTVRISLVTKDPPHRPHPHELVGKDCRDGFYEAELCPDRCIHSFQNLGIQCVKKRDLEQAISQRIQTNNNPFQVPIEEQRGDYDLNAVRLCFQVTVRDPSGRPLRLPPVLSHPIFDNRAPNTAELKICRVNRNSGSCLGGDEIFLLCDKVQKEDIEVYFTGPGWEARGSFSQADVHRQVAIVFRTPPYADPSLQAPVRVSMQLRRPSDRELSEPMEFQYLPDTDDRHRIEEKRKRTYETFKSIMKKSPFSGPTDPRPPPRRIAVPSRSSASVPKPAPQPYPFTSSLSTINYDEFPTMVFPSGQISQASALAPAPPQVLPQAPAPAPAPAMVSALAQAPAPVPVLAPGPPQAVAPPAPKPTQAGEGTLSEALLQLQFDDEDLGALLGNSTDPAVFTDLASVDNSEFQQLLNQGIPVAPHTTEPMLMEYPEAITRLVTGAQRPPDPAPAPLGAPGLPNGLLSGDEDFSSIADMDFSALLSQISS"}, "source": "paper PMC5647368", "key": {"[1]": {"target": "Flag-tagged p65/RelA full length (UniProt Q04206)", "assay": "co-IP; extracts of HEK293T cells transfected with Flag-p65/RelA, HA-p62 and Myc-LRRC25 expression plasmids, harvested 24 h after transfection; immunoprecipitation and immunoblot"}, "[2]": {"target": "T1, Flag-LRRC25 full length (UniProt Q8N386)", "T1 sequence": "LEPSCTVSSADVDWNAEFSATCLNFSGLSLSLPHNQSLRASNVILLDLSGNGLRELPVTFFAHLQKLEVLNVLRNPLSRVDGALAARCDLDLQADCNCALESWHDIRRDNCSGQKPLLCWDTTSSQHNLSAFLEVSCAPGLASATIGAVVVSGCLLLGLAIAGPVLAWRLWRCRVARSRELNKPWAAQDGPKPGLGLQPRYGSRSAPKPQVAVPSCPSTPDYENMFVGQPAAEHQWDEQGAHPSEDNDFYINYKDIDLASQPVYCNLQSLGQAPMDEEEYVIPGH", "assay": "co-IP; extracts of HEK293T cells co-transfected with two tagged constructs, harvested 24 h after transfection; immunoprecipitation (anti-Flag in Fig. 5D and 5F) and immunoblot for the other tag; beads washed six times with low-salt lysis buffer (50 mM Hepes pH 7.5, 150 mM NaCl, 1 mM EDTA, 1.5 mM MgCl2, 10% glycerol, 1% Triton X-100)"}, "[3]": {"target": "p65/RelA (endogenous, THP-1 cells) (human (endogenous in THP-1)) (UniProt Q04206)", "assay": "co-IP; endogenous proteins; THP-1 cells treated with or without LPS; cell extracts precipitated with anti-p65/RelA, immunoblot with anti-LRRC25 or anti-p62; IgG control"}}, "note": "Results are given in words; binding and its absence hold for the method and conditions named. Binding seen in cells or lysates may run through a third protein. Some binding calls cover weakened binding; strength is not graded here. For part of these data: Tags and fused reporters may be left off the sequences shown.", "data": [{"substance": "HA-p62 (from UniProt Q13501 1-440)", "values": [{"measurement": "binding", "setting": "[1]", "result": "binds"}]}, {"substance": "HA-p65/RelA (from UniProt Q04206 1-551)", "values": [{"measurement": "binding", "setting": "[2]", "result": "binds"}]}, {"substance": "p62 (encoded by SQSTM1) (endogenous, THP-1 cells) (from UniProt Q13501 1-440)", "values": [{"measurement": "binding", "setting": "[3]", "result": "binds"}]}]}
